PubChem BioAssay AID540276 (National Center for Advancing Translational Sciences (NCATS), 2011)
Among all 300,000 compounds or so, about 5,400 (1.8%) were called active. This list was built around the results that the source calls inconclusive (neither active nor inactive); the mix of calls is not that of the screen. Calls follow the shape of the full dose curve; tested in HEK293 cells. Potencies of inconclusive entries are doubtful fits and often do not repeat.

test: qHTS for inhibitors of binding or entry into cells for Marburg Virus; settings: Marburg virus pseudotyped entry inhibition, cell reporter; activity change, negative = inhibition: at 37.8 µM (top of the series) unless noted
% is scaled to controls: 0 for no effect and ±100 for the full control effect; potency is read from the fitted curve at half-maximal effect.

SMILES | Potency | activity change, negative = inhibition
O=C(CN1CC(c2ccccc2)CC1=O)OCc1ccccc1F (centres undefined) | inconclusive: 0.146 µM [activator, partial curve, poor fit] | 
Cc1cccc(C)c1OCc1cc(C(=O)N(C)Cc2nc3ccccc3[nH]2)no1 | inconclusive: 10 µM [inhibitor, partial curve, poor fit] | 
O=C(Nc1ccccc1)N(Cc1c[nH]c2ccccc12)C1CCCCCC1 |  | inactive: 4.46% [at 46.1 µM]
COc1cc(C(=O)NNC(=O)CNC(=O)c2ccc(Br)o2)cc(OC)c1OC | inconclusive: 3.16 µM [activator, partial curve] | 
Cc1ccc(OCCn2c(C)nc3ccccc32)cc1 | inconclusive: 14.1 µM [inhibitor, single point] | 
Cc1cccc(CN2CCN(Cc3ccc(Cl)cc3)CC2)c1 | inconclusive: 10 µM [inhibitor, partial curve, poor fit] | 
O=C(/C=C/c1ccco1)Nc1cccc(NC(=O)/C=C/c2ccco2)n1 | inconclusive: 4.47 µM [activator, partial curve] | 
CCc1nc2ccc(C(=O)Nc3ccc4c(c3)OCO4)cc2nc1CC |  | inactive: 9.87%
Fc1ccc(COc2ccc3ccccc3c2CNc2nn[nH]n2)cc1 | inconclusive: 20 µM [inhibitor, partial curve, poor fit] | 
CCOC(=O)C1=C(c2ccccc2)N=c2s/c(=C\c3ccc(O)cc3)c(=O)n2C1c1cccs1 (centres undefined) | inconclusive: 29.1 µM [inhibitor, single point] | 
Cc1cccc2cc(CN(Cc3ccco3)C(=O)c3ccncc3)c(=O)[nH]c12 | inconclusive: 12.6 µM [inhibitor, single point] | 
O=C(Nc1nccs1)c1csc2c1CCCC2 | inconclusive: 6.31 µM [activator, single point] | 
Cc1ccc(Cn2nc(C)c(NC(=O)C3CC3)c2C)cc1 |  | inactive: -1.24%
CCOC(=O)c1ccc(NC(=O)c2cccc(S(=O)(=O)N3CCOCC3)c2)cc1 | inconclusive: 20 µM [inhibitor, single point] | 
Cc1ccc(-c2cc(C(=O)OCC(=O)N(C)c3c(N)n(Cc4ccccc4)c(=O)[nH]c3=O)c3ccccc3n2)o1 | inconclusive: 8.91 µM [inhibitor, single point] | 
Cc1onc(-c2c(Cl)cccc2Cl)c1C(=O)NN1CCCCCC1 | inconclusive: 0.355 µM [inhibitor, partial curve, poor fit] | 
CN(C(=O)/C=C/c1ccc2c(c1)OCO2)c1ccccc1 |  | inactive: -7.92%
COc1ccc(NC(=O)COC(=O)C2CCN(C(=O)c3ccc(Cl)cc3)CC2)c([N+](=O)[O-])c1 | inconclusive: 7.94 µM [inhibitor, partial curve, poor fit] | 
Nc1nn(-c2ccccc2)c2ccc([N+](=O)[O-])cc12 |  | inactive: 1.19%
COc1ccc(/C=C/C2=CCN(Cc3ccc(OC)cc3)CC2)cc1 | active: 4.47 µM | 
Cc1ccc(S(=O)(=O)N2CCN(C3CCN(Cc4ccccc4)CC3)CC2)cc1 |  | inactive: -0.313%
Cc1cccc(NC(=O)CCCn2c(=S)[nH]c3ccccc3c2=O)c1 | inconclusive: 1.12 µM [inhibitor, full curve, poor fit] | 
Cc1ccnc(NC(=O)c2ccc([N+](=O)[O-])o2)c1 | inconclusive: 32.6 µM [inhibitor, single point] | 

SMILES | Potency | activity change, negative = inhibition
O=C(Nc1ccccc1Oc1cccnc1)C1CCCN(C/C=C/c2ccccc2)C1 (centres undefined) | inconclusive: 11.2 µM [inhibitor, partial curve, poor fit] | 
Cc1cc(N/N=C/c2cccc(Br)c2)nc2ccccc12 |  | inactive: -14.7%
Cc1ccc(S(=O)(=O)N2CCN(C(=O)NCc3ccc(C(=O)O)cc3)CC2)cc1 | inconclusive: 8.91 µM [activator, partial curve, poor fit] | 
Cn1cc(CNCc2ccc(-n3cccn3)cc2)c(-c2ccccc2F)n1 | inconclusive: 25.1 µM [inhibitor, single point] | 
O=C(CSCc1ccc(Br)cc1)Nc1ccc(S(=O)(=O)N2CCCCCC2)cc1 | inconclusive: 20.6 µM [inhibitor, partial curve] | 
Cc1ccc(NC(=O)C(C)OC(=O)c2ccc(NS(=O)(=O)c3ccc(F)c(F)c3)cc2)cc1 (centres undefined) | inconclusive: 11.2 µM [inhibitor, single point] | 
O=C(Cc1ccsc1)NCC(=O)Nc1ccc(F)c(F)c1 |  | inactive: 3.01% [at 46.1 µM]
CCOC(=O)C1CCN(CCCSc2ccc(Cl)cc2)CC1 | inconclusive: 0.447 µM [inhibitor, partial curve, poor fit] | 
COc1ccc(NC(=O)CSc2oc(-c3ccc(F)cc3)nc2S(=O)(=O)c2ccc(C)cc2)c(OC)c1 |  | inactive: 4.3% [at 46.1 µM]
O=C(c1ccc(Cl)c(S(=O)(=O)N2CCOCC2)c1)N1CCOCC1 | inconclusive: 3.16 µM [inhibitor, partial curve, poor fit] | 
O=C(Nc1ncn[nH]1)c1cccc(S(=O)(=O)N2CCOCC2)c1 | inconclusive: 0.316 µM [inhibitor, full curve, poor fit] | 
Cc1ccc(CN(Cc2cc3cc4c(cc3[nH]c2=O)OCCO4)Cc2nnnn2Cc2ccco2)cc1 | inconclusive: 16.4 µM [inhibitor, single point] | 
COc1ccc(-c2cc(CCCC(=O)NCCc3ccccc3)no2)cc1 | inconclusive: 3.16 µM [activator, partial curve, poor fit] | 
CNC(=S)N1N=C(c2ccc(Br)cc2)CC1c1ccc(Br)cc1 (centres undefined) | inconclusive: 10.3 µM [inhibitor, partial curve] | 
CCN(CC)S(=O)(=O)c1cccc(NC(=O)CN2C(=O)c3ccc([N+](=O)[O-])cc3C2=O)c1 |  | inactive: 4.78%
CC1CCCC(NC(=O)CN2CCN(S(=O)(=O)c3ccc(Br)s3)CC2)C1C (centres undefined) |  | inactive: -19.3%
CCc1cccc(CC)c1NC(=O)C1CCC(CNS(=O)(=O)c2cccc3nsnc23)CC1 (centres undefined) |  | inactive: -20.1% [at 46.1 µM]
Cc1cc(=O)n(Cc2ccccc2)c2c(C)cccc12 | inconclusive: 10 µM [inhibitor, partial curve] | 
Cc1cccc(NC(=O)CN2C(=O)N/C(=C/c3ccc(C)o3)C2=O)c1 | inconclusive: 11.2 µM [inhibitor, partial curve, poor fit] | 
COc1ccc2c(c1OC)C(=O)OC2Nc1ccccc1S(=O)(=O)C(F)F (centres undefined) |  | inactive: -5.02%
O=c1[nH]c(=S)[nH]c(O)c1C(c1ccccn1)c1c(O)[nH]c(=S)[nH]c1=O |  | inactive: 0.0024% [at 46.1 µM]
CC1=C(C(=O)Nc2ccccc2)C(c2ccc(C)cc2)N=C(Nc2nc3ccccc3o2)N1 (centres undefined) | inconclusive: 8.2 µM [inhibitor, partial curve] | 
COc1ccc(S(=O)(=O)Nc2cccc(-c3ccc4nncn4n3)c2)c(OC)c1 | inconclusive: 7.94 µM [inhibitor, partial curve, poor fit] | 

As a short view, some entries already given.
SMILES | Potency | activity change, negative = inhibition
COc1ccc(-c2cc(CCCC(=O)NCCc3ccccc3)no2)cc1 | inconclusive: 3.16 µM [activator, partial curve, poor fit] | 
CNC(=S)N1N=C(c2ccc(Br)cc2)CC1c1ccc(Br)cc1 (centres undefined) | inconclusive: 10.3 µM [inhibitor, partial curve] | 
CCN(CC)S(=O)(=O)c1cccc(NC(=O)CN2C(=O)c3ccc([N+](=O)[O-])cc3C2=O)c1 |  | inactive: 4.78%
CC1CCCC(NC(=O)CN2CCN(S(=O)(=O)c3ccc(Br)s3)CC2)C1C (centres undefined) |  | inactive: -19.3%

Next part

SMILES | Potency | activity change, negative = inhibition
Cc1cc(Nc2ccccc2)n(-c2cccc(Cl)c2)n1 |  | inactive: -13.4%
C=CCNc1nc(-c2ccc(O)c(C(N)=O)c2)cs1 | inactive | 
Cc1c(NC(=O)c2ccc(Cl)c([N+](=O)[O-])c2)cccc1-n1cnnn1 | inconclusive: 11.2 µM [inhibitor, single point] | 
O=C(Nc1nc(-c2ccc(S(=O)(=O)N3CCCC3)cc2)cs1)c1ccco1 | inconclusive: 35.5 µM [inhibitor, single point] | 
c1ccc(C2=Nc3c(ccc4ccccc34)C(c3ccncc3)=NN2)cc1 | inconclusive: 20 µM [inhibitor, partial curve, poor fit] | 
C/C(=N\OC(=O)c1ccc(Cl)c(Cl)c1)c1sc(C)nc1C | inconclusive: 8.91 µM [activator, partial curve] | 
Cc1c(C=O)c(C=O)c(C)n1Cc1ccccc1 | inconclusive: 7.08 µM [inhibitor, partial curve, poor fit] | 
COC(=O)c1cccnc1N1CCN(c2ccccc2F)CC1 |  | inactive: -19.3%
O=C(COC(=O)/C=C/c1ccco1)Nc1ccccc1 | inconclusive: 31.6 µM [activator, single point] | 
CCc1ccc(NC(=O)C(C)OC(=O)Cc2cc(OC)c(OC)c(OC)c2)cc1 (centres undefined) | inconclusive: 0.316 µM [activator, partial curve, poor fit] | 
Cc1ccc(OCC(=O)NNC(=O)CCC(=O)NCc2ccccc2)cc1 | inconclusive: 0.13 µM [activator, single point] | 
Cc1cc([N+](=O)[O-])cc(/C=N/n2c(C)nc3ccccc3c2=O)c1O | inconclusive: 35.5 µM [inhibitor, single point] | 
COc1cc(C(=O)O/N=C(\N)c2ccncc2)cc(OC)c1OC |  | inactive: -2.14%
Cc1ccc(-c2cc(C(F)(F)F)n3nc(-c4ccc(Cl)cc4)cc3n2)cc1 |  | inactive: -1.95% [at 46.1 µM]
CCN(CC)CCCNC(=O)C1c2ccccc2Oc2ccccc21 |  | inactive: -0.268%
S=C(c1ccc(-c2ccccc2Cl)o1)N1CCCCC1 |  | inactive: -1.84%
Clc1ccc(OCc2nc(-c3ccncc3)no2)c(Cl)c1 | inconclusive: 2.91 µM [activator, full curve, poor fit] | 
CC(=O)NS(=O)(=O)c1ccc(NC(=O)/C=C/c2ccccc2Cl)cc1 | inconclusive: 3.55 µM [inhibitor, single point] | 
Cc1nc(C)c(C(=O)C2=C(O)C(=O)N(CCCn3ccnc3)C2c2ccc(Cl)cc2)s1 (centres undefined) |  | inactive: -2.07% [at 46.1 µM]
O=C(N/N=C/c1cc(Br)c(Br)o1)C(O)c1ccccc1 (centres undefined) |  | inactive: -7.28% [at 46.1 µM]
COc1ccc(C)cc1NC(=O)CN(C)S(=O)(=O)c1cnc[nH]1 | inconclusive: 16.4 µM [activator, single point] | 
CN(C)Cc1cc(C(C)(C)C)cc(N2CCOCC2)c1O |  | inactive: 0.5% [at 46.1 µM]
CN1CCN(c2nc(-c3cccnc3)nc3scc(-c4ccccc4)c23)CC1 | inconclusive: 35.5 µM [inhibitor, single point] | 
